Screen size: about 320,000 compounds; about 22,000 (6.9%) were called active. The inconclusive results got no clear call from the source; some entries with a clear call stand among them for comparison. Calls come from the whole dose curve; as a rule, active = well fitted inhibition curve with a large enough effect; inconclusive = small, poorly fitted or top-dose-only effect, or another doubt; inactive = no such curve, though single readings can be large or run the other way. A potency beside an inconclusive call is a rough fit, not a confirmed value.
Assay: Primary qHTS for delayed death inhibitors of the malarial parasite plastid, 96 hour incubation
Settings: P. falciparum luciferase reporter growth; series mostly up to 28.7 µM
Method in brief: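 Parasite growth measured via integrated firefly luciferase reporter in P. falciparum. Infected erythrocytes at 2% hematocrit, 0.05% parasitemia final were treated 96 hours at 37 C under 5% CO2, and luminescence was read.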
Potency is the fitted concentration of half-maximal effect.

Row | Structure (SMILES) | Potency
1 | O=C(Nc1nc2cc3c(cc2s1)OCCO3)c1cccc(N2C(=O)CCC2=O)c1 | inactive
2 | COc1ccc(NC(=S)N(CCCN2CCCC(C)C2)Cc2cccs2)cc1 (stereo not given) | inconclusive: 18.5 µM [inhibitor, single point]
3 | O=C(Oc1cc2oc(=O)c3c(c2cc1Cl)CCCC3)c1cccs1 | inconclusive: 18.5 µM [inhibitor, single point]
4 | CC(C)(C)c1ccc(C(=O)OCC(=O)NCc2ccco2)cc1 | inconclusive: 0.117 µM [inhibitor, full curve, poor fit]
5 | O=C(CSc1nnc(COc2cccc3ccccc23)o1)N1c2ccccc2CCc2ccccc21 | inactive
6 | CCCCc1nnc(NC(=O)Cc2ccc(S(=O)(=O)N3CCOCC3)s2)s1 | inconclusive: 18.5 µM [inhibitor, partial curve, poor fit]
7 | O=C(c1ccccc1)N1CCCC(C(=O)N2CCCCCC2)C1 (stereo not given) | inconclusive: 18.5 µM [inhibitor, single point]
8 | CCC(C)(C)C1CCc2[nH]nc(C(=O)NN)c2C1 (stereo not given) | inconclusive: 6.57 µM [inhibitor, partial curve, poor fit]
9 | CN1CCN(CC(=O)Nc2cc(N(C)C)nc3ccccc23)CC1 | inconclusive: 4.65 µM [inhibitor, partial curve, poor fit]
10 | Cc1ccc(N(CC(=O)N/N=C/c2ccco2)S(=O)(=O)c2ccccc2)cc1 | inconclusive: 9.28 µM [inhibitor, single point]
11 | Cc1noc(C)c1C(=O)NCCc1c(C)[nH]c2ccccc12 | inconclusive: 1.65 µM [inhibitor, full curve]
12 | O=C(CSc1ncnc2ccccc12)NCc1ccco1 | inconclusive: 11.7 µM [inhibitor, single point]
14 | O=C(NCc1ccc(F)cc1)c1cc2c(cc1Cl)N1CCCCCC1=NS2(=O)=O | inconclusive: 18.5 µM [inhibitor, single point]
15 | COc1ccc(Sc2ncnc3onc(C)c23)cc1 | inconclusive: 0.465 µM [inhibitor, full curve, poor fit]
16 | CCOc1cccc2cc(C(=O)NCc3cccnc3)c(=O)oc12 | active: 2.33 µM
17 | S=C(NCCc1ccccc1)N1CCN(C(c2ccccc2)c2ccccc2)CC1 | inconclusive: 4.15 µM [inhibitor, partial curve, poor fit]
18 | COc1ccc(C(=O)NCCCCNC(=O)c2ccc(OC)c(OC)c2)cc1OC | inconclusive: 18.5 µM [inhibitor, single point]
19 | O=C(CCCC(=O)N(CC(=O)NC1CCCC1)Cc1ccc(F)cc1)Nc1ccccn1 | inconclusive: 0.415 µM [inhibitor, partial curve, poor fit]
20 | O=C1C=C(c2ccccc2Oc2ccccc2)C[C@@H](c2ccc3c(c2)OCO3)C1 | inconclusive: 16.5 µM [inhibitor, single point]
21 | Cc1ccc(C)c(OCc2cc(C(=O)N3CCC(N4CCCC(O)C4)CC3)no2)c1 (stereo not given) | inactive
22 | Cc1c(C(=O)N2CCN(S(=O)(=O)c3ccc(F)cc3)CC2)oc2ccccc12 | inconclusive: 8.28 µM [inhibitor, partial curve, poor fit]

Row | Structure (SMILES) | Potency
23 | Cc1ccc2nc(SCC(=O)NCc3ccco3)[nH]c2c1 | inconclusive: 10.4 µM [inhibitor, single point]
24 | CC1OC(Nc2ccc(N=Nc3ccccc3)cc2)C(O)C(O)C1O (stereo not given) | inactive
25 | Cc1cc(=O)oc2cc(OCC(=O)N3CC[C@@]4(O)CCCC[C@H]4C3)ccc12 | inactive
26 | COCCCn1c(=O)/c(=C\c2cccc(OC)c2OC)s/c1=C(/C#N)C(=O)Nc1ccc(C(=O)O)cc1 | inconclusive: 13.1 µM [inhibitor, single point]
27 | C[C@H](NC(=O)c1ccco1)C(=O)NCc1cccs1 | inactive
28 | COCCNc1c2c(c(C#N)c3nc4ccccc4n13)CCCC2 | inconclusive: 0.0026 µM [inhibitor, full curve, poor fit]
29 | O=C(NC1CCCCCC1)c1ccc(CS(=O)(=O)Cc2ccc(F)cc2)o1 | inconclusive: 1.65 µM [inhibitor, full curve, poor fit]
30 | O=C1c2cccc3c(N4CCCCC4)ccc(c23)C(=O)N1c1ccccn1 | inactive
31 | CCCOc1ccc2[nH]cc(C(=O)O)c(=O)c2c1 | active: 14.7 µM
32 | CCOc1ccc(CNC(=O)C(CC)n2nc(C)n3c(cc4occc43)c2=O)cc1OC (stereo not given) | inconclusive: 13.1 µM [inhibitor, single point]
33 | COc1cc2c(=O)n(CCCC(=O)NCC3CCCO3)c(=O)n(CC(=O)c3ccc(F)cc3)c2cc1OC (stereo not given) | inactive
34 | O=[N+]([O-])c1ccc(N2CCC(=NOCc3ccc(Cl)cc3)CC2)cc1 | inconclusive: 20.8 µM [inhibitor, single point]
35 | N#Cc1c(N2CCN(c3ccc(F)cc3)CC2)nc(N)c2c(N)nc3c(c12)CC(=O)N3C1CC1 | active: 2.62 µM
36 | CCC1CN(C(=O)N2CCC(C(=O)NCc3cc(OC)c(OC)c(OC)c3)CC2)c2ccccc2O1 (stereo not given) | inconclusive: 18.5 µM [inhibitor, single point]
37 | COc1ccc(CCC(=O)Nc2ccc(Cn3ccnc3)cc2)cc1 | inconclusive: 10.4 µM [inhibitor, partial curve, poor fit]
38 | O=C1COc2ccc(-c3csc(=Nc4ccc(OC(F)F)cc4)n3CC3CCCO3)cc2N1 (stereo not given) | inconclusive: 18.5 µM [inhibitor, single point]
39 | Cc1cccn2c(N)c(-c3ccccc3)nc12 | inconclusive: 5.22 µM [inhibitor, partial curve, poor fit]
40 | O=S(=O)(c1ccc2nc(Nc3ccccc3)ccc2c1)N1CCCCC1 | inconclusive: 4.15 µM [inhibitor, partial curve]
41 | Cc1ccc(N(CC(=O)NCC2CCCO2)C(=O)CCC(=O)Nc2nccs2)cc1C (stereo not given) | inconclusive: 11.7 µM [inhibitor, partial curve]
42 | CCNC(=O)/C(=C/c1ccc2c(c1)OCO2)NC(=O)c1ccc(Br)cc1 | inactive
43 | Cc1nn(-c2ccccc2)c(Cl)c1CN(C(=O)CCl)c1cccc2ccccc12 | inconclusive: 9.28 µM [inhibitor, single point]
44 | CC(C)(C)NC(=O)C(=O)NC(=O)c1c(F)cccc1Cl | inactive

Fetched one by one from the entries so far (two):
Row | Structure (SMILES) | Potency
40 | O=S(=O)(c1ccc2nc(Nc3ccccc3)ccc2c1)N1CCCCC1 | inconclusive: 4.15 µM [inhibitor, partial curve]
31 | CCCOc1ccc2[nH]cc(C(=O)O)c(=O)c2c1 | active: 14.7 µM

Continuation.

Row | Structure (SMILES) | Potency
45 | CN(C)S(=O)(=O)N1CCN(C(=O)c2cccc(Br)c2)CC1 | inactive
46 | COc1cc(S(=O)(=O)NCCCn2ccnc2)ccc1F | inconclusive: 0.294 µM [inhibitor, partial curve, poor fit]
47 | COc1ccc(N2CCc3c(C)nc4c(OC)cccc4c32)cc1 | inconclusive: 9.28 µM [inhibitor, single point]
48 | CC(C)(C)OC(=O)CNC(=O)c1[nH]cnc1C(=O)NC1CCN(C(=O)OC(C)(C)C)CC1 | inconclusive: 16.5 µM [inhibitor, single point]
49 | CC(C)c1cccc(C(C)C)c1NC(=O)COC(=O)C1=COCCO1 | inactive
50 | CCOc1cccc(CN2CCC(Oc3ccc(C(=O)N4CCCC4)cc3)CC2)c1 | inconclusive: 13.1 µM [inhibitor, single point]
51 | C#CCOCCOCCOCCNc1nc(N2CCN(C(=O)[C@H](CCC(=O)O)n3cc(C(N)Cc4ccc(O)cc4)nn3)CC2)nc(N2CCN(C(=O)[C@H](CCC(=O)O)n3cc(C(N)Cc4ccc(O)cc4)nn3)CC2)n1 (stereo not given in full) | inactive
52 | CSc1nc(C(=O)N2CCCC(N3CCN(c4ccccc4C)CC3)C2)cs1 (stereo not given) | inconclusive: 13.1 µM [inhibitor, single point]
53 | O=C(CC1C(=O)NC2CCCCC2N1C(=O)c1ccc([N+](=O)[O-])cc1)Nc1ccccc1 (stereo not given) | inconclusive: 18.5 µM [inhibitor, single point]
54 | O=C(NNc1nc(-c2ccc(Br)cc2)cs1)c1ccco1 | inactive
55 | CCOc1cc(C2c3c(n[nH]c3C)C(=O)N2c2ccc(C)cc2)ccc1O (stereo not given) | inconclusive: 0.0738 µM [inhibitor, full curve, poor fit]
56 | CC(=O)Oc1ccc(/C(C)=N/N2CCN(Cc3ccc(C)cc3)CC2)cc1 | inconclusive: 18.5 µM [inhibitor, single point]
57 | COc1ccc(OC)c(C2C(C#N)=C(N)N(N(C)C)C3=C2C(=O)CC(C)(C)C3)c1 (stereo not given) | inconclusive: 4.65 µM [inhibitor, partial curve, poor fit]
58 | Clc1ccc(SCCCCn2ccnc2)cc1 | inconclusive: 18.5 µM [inhibitor, single point]
59 | c1ccc(-c2cc(N3CCCCC3)c3ccccc3n2)cc1 | active: 9.28 µM
60 | COc1ccc(CN2CCn3ncc(C(=O)Nc4ccccc4)c3C2=O)cc1 | inconclusive: 3.7 µM [inhibitor, single point]
61 | Cc1ccc(C)c(S(=O)(=O)Nc2cc3c4c(c2)CC(=O)N4CCC3)c1 | inconclusive: 11.7 µM [inhibitor, single point]
62 | Cc1cc(NC(=O)CSc2nc3ccsc3c(=O)n2CCCCC(=O)O)no1 | active: 4.65 µM
63 | O=C(Nc1ccccc1)C1CC(O)CN1S(=O)(=O)c1ccc([N+](=O)[O-])cc1 (stereo not given) | inconclusive: 10.4 µM [inhibitor, single point]
64 | Cc1cccc(C(=O)N/N=C2\CS(=O)(=O)N(C)c3ccsc32)c1 | inconclusive: 8.28 µM [inhibitor, partial curve]
65 | C(=C(c1ccccc1)c1ccccc1)c1ccccn1 | inconclusive: 18.5 µM [inhibitor, single point]

Among those listed so far, these contain bromine:
Row | Structure (SMILES) | Potency
42 | CCNC(=O)/C(=C/c1ccc2c(c1)OCO2)NC(=O)c1ccc(Br)cc1 | inactive
45 | CN(C)S(=O)(=O)N1CCN(C(=O)c2cccc(Br)c2)CC1 | inactive
54 | O=C(NNc1nc(-c2ccc(Br)cc2)cs1)c1ccco1 | inactive

Source: PubChem BioAssay AID504834 (National Center for Advancing Translational Sciences (NCATS), 2011)
